{"source": "PubChem BioAssay AID1273", "about": "(Columbia University Molecular Screening Center, 2008)", "note": "In all, about 130,000 compounds went through this assay and about 1,200 (0.92%) were called active. The shares of active, inactive and inconclusive entries below differ from those in the screen.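 Rule for the calls: active = inhibition above the mean plus 3 SD, with well images judged a real hit on visual review (cut at about 60% in these data, passing the limit was not always enough); inconclusive = inhibition over the cutoff but images rejected on review; inactive = inhibition not above the cutoff.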 More than one record can exist for a structure, and the calls need not agree.", "data": [{"experiment": "inhibitors of insulin promoter-driven GFP, primary screen, imaging, TRM-6 cells (human fetal islet line), eGFP reporter, cell count (AID 1273)", "conditions": "at 2 µM, stronger effect = higher value, reporter expression induced with tamoxifen", "values": [{"molecule": "NC(=O)CSc1nnc(-c2ccc(S(=O)(=O)N3CCCC3)cc2)o1", "inhibition": "inactive: 42.9%"}, {"molecule": "CCSc1nn2c(=O)c3ccccc3nc2s1", "inhibition": "inactive: -103%"}, {"molecule": "c1ccc2nc3c(cc2c1)CCCCCC3", "inhibition": "inconclusive: 79.2%"}, {"molecule": "COc1ccccc1N/N=C/c1ccc2c(c1)OCO2", "inhibition": "inconclusive: 66.7%"}, {"molecule": "CCN(CC)c1ccc2cc(S(=O)(=O)c3ccc(Cl)cc3)c(=O)oc2c1", "inhibition": "inactive: -10%"}, {"molecule": "Cc1ccnc(SCC(=O)c2ccc(Br)cc2)c1C#N", "inhibition": "active: 61.1%"}, {"molecule": "CCOC(=O)N1CCC(c2cc(=O)n3[nH]c(-c4ccccc4)cc3n2)CC1", "inhibition": "inconclusive: 71.4%"}, {"molecule": "CCC(NC(=O)COc1ccc([N+](=O)[O-])cc1)c1ccccc1", "note": "(configuration not stated)", "inhibition": "active: 66.7%"}, {"molecule": "CCOCCCn1cnc2c(c1=O)c1nc3ccccc3nc1n2-c1ccc(C)cc1", "inhibition": "inactive: 35.7%"}, {"molecule": "O=C(NCCc1ccc(F)cc1)N1CCOCC1", "inhibition": "active: 83.3%"}, {"molecule": "Nc1c2c(nc3ccc(Br)cc13)N(Cc1ccccc1)CC2", "inhibition": "active: 69.2%"}, {"molecule": "COc1ccc(NC(=O)/C(Cl)=C(/Cl)S(=O)(=O)Cc2ccc(C)cc2)cn1", "inhibition": "inactive: -223%"}, {"molecule": "Cc1ccc(-n2c(C)csc2=N)cc1", "inhibition": "inconclusive: 72.4%"}, {"molecule": "Cc1cc(C)n2nc(Cc3ccccc3)nc2n1", "inhibition": "inconclusive: 76.9%"}, {"molecule": "Cc1nn(-c2nc3ccccc3s2)c(N)c1-c1ccc(Cl)cc1", "inhibition": "inconclusive: 80%"}, {"molecule": "CCOc1ccc(N(Cc2ccccc2F)C2=NC3CS(=O)(=O)CC3S2)cc1", "note": "(configuration not stated)", "inhibition": "inconclusive: 72.7%"}, {"molecule": "COc1ccc(CNC(=O)C2(c3ccc(Cl)cc3)CC2)cc1", "inhibition": "active: 75%"}, {"molecule": "CC(C(=O)Nc1cc([N+](=O)[O-])ccc1Cl)N1CCN(c2ccc(O)cc2)CC1", "note": "(configuration not stated)", "inhibition": "active: 72.4%"}, {"molecule": "O=[N+]([O-])c1ccc(S(=O)(=O)Nc2nc3ccccc3nc2Nc2ccccc2)cc1", "inhibition": "inactive: -45.5%"}, {"molecule": "CCCCn1c(N)c(NCCC(C)C)c(=O)[nH]c1=O", "inhibition": "active: 82.1%"}, {"molecule": "CN=C1S/C(=C\\c2cccn2-c2cccc(Br)c2)C(=O)N1C", "inhibition": "inactive: -38.1%"}, {"molecule": "COc1ccc(S(=O)(=O)N(CCC(=O)O)Cc2ccccc2)cc1", "inhibition": "inactive: -36.4%"}, {"molecule": "COc1ccc(C(=O)O/N=C(\\N)c2ccncc2)cc1OC", "inhibition": "inactive: 7.14%"}, {"molecule": "O=C(CN1CCN(Cc2ccccc2F)C1=O)NC1CCCC1", "inhibition": "inconclusive: 66.7%"}, {"molecule": "Cn1c(=O)n(Cc2ccccc2)c(=O)c2c1nc1n2CCCN1CCc1ccccc1", "inhibition": "inactive: -65.6%"}, {"molecule": "CC(C)Cc1cc(C(=O)O)n[nH]1", "inhibition": "inactive: 27.8%"}, {"molecule": "COc1ccc(Cn2c(C)nnc2-c2cnn(C)c2N)cc1OC", "inhibition": "inconclusive: 80%"}, {"molecule": "Cc1cccc(Oc2ccc(Cl)cc2N)c1", "inhibition": "inconclusive: 71.4%"}, {"molecule": "Cc1ccc(OCC(=O)Nc2ccc(O)c(-c3nc4ccccc4o3)c2)cc1", "inhibition": "inactive: 6.25%"}, {"molecule": "COC(=O)CC1NCCc2cc(OC)c(OC)cc21", "note": "(configuration not stated)", "inhibition": "inconclusive: 72.7%"}, {"molecule": "CCOc1ccc2[nH]c3c(N4CCN(c5ccccn5)CC4)ncnc3c2c1", "inhibition": "active: 87.5%"}, {"molecule": "CCOCCn1c(SC)nc2c1c(=O)[nH]c(=O)n2C", "inhibition": "inconclusive: 33.1%"}, {"molecule": "CCOC(=O)c1c(NS(C)(=O)=O)sc2c1CCC(C)C2", "note": "(configuration not stated)", "inhibition": "inactive: -36.4%"}, {"molecule": "Cc1ccc(Nc2nc(N3CCOCC3)nc(N3CCOCC3)n2)cc1", "inhibition": "inconclusive: 81.8%"}, {"molecule": "Cc1c(CCO)sc[n+]1CC(=O)OCCC12CC3CC(CC(C3)C1)C2", "inhibition": "active: 66.7%"}, {"molecule": "O=C(C1CCC1)N1CCc2cc(S(=O)(=O)NCc3ccco3)ccc21", "inhibition": "active: 81.8%"}, {"molecule": "CC1SCC(=O)N(CC(=O)Nc2ccc3c(c2)OCCO3)C1=O", "note": "(configuration not stated)", "inhibition": "inactive: -5.56%"}, {"molecule": "CCc1cccc(CC)c1C(O)c1cccnc1", "note": "(configuration not stated)", "inhibition": "inconclusive: 61.5%"}, {"molecule": "O=C(NCCCN1CCCC1=O)c1ccc(Cl)c(NS(=O)(=O)c2ccc(F)cc2)c1", "inhibition": "inconclusive: 72.7%"}, {"molecule": "CN(CCC#N)C(=O)COC(=O)c1c2c(nc3ccccc13)/C(=C/c1ccco1)CC2", "inhibition": "inactive: 21.9%"}, {"molecule": "COc1cc(NC(=O)COC(C)=O)cc(OC)c1OC", "inhibition": "inconclusive: 68.4%"}, {"molecule": "O=C(CCCOc1ccccc1)Nc1cccc([N+](=O)[O-])c1", "inhibition": "active: 76.9%"}, {"molecule": "CC(=O)Nc1ccc(/C=N/NC(=S)NC(C)C)cc1", "inhibition": "inactive: 50%"}, {"molecule": "O=C(C1CCN(C2CC(=O)N(Cc3ccccc3)C2=O)CC1)N1CCCCCC1", "note": "(configuration not stated)", "inhibition": "inactive: -238%"}, {"molecule": "Cc1ccc(NC(=O)C2CC(=O)n3c(nc4ccccc43)N2)cc1Cl", "note": "(configuration not stated)", "inhibition": "active: 73.3%"}, {"molecule": "COc1cccc(-n2c(SCC(N)=O)nnc2-c2ccncc2)c1", "inhibition": "inconclusive: 90.9%"}, {"molecule": "CC(C)(CSc1ccccn1)NS(=O)(=O)c1ccc(Cl)cc1", "inhibition": "inconclusive: 70.4%"}, {"molecule": "CC(=O)Nc1cc2c(cc1C(=O)c1ccc(C)cc1)OCCO2", "inhibition": "inconclusive: 76.9%"}, {"molecule": "O=C(O)c1cnc(-c2ccccc2)nc1Sc1ccccc1", "inhibition": "inconclusive: 70.8%"}, {"molecule": "COc1cccc2c(=O)cc(C)n(CC(=O)Nc3cccc(C)c3)c12", "inhibition": "inconclusive: 64.3%"}, {"molecule": "O=[N+]([O-])c1cc(C(F)(F)F)cc([N+](=O)[O-])c1N1CCN(S(=O)(=O)c2ccccc2)CC1", "inhibition": "inactive: -33.3%"}, {"molecule": "CCN(CC)c1nc2n(c(=O)n1)CCO2", "inhibition": "inconclusive: 90%"}, {"molecule": "Cc1ccc(OCCN(C)C)c([N+](=O)[O-])c1", "inhibition": "inconclusive: 71.4%"}, {"molecule": "Cc1ccc(-n2nnnc2SCC(N)=O)c(C)c1", "inhibition": "inconclusive: 81%"}, {"molecule": "Cc1cnc(NC(=O)Cc2cccs2)s1", "inhibition": "inconclusive: 75%"}, {"molecule": "c1ccc2c(-c3nc(-c4ccncc4)no3)cccc2c1", "inhibition": "inactive: 10.7%"}, {"molecule": "O=C(c1ccco1)N1CCN(S(=O)(=O)c2cccs2)CC1", "inhibition": "inconclusive: 76.7%"}, {"molecule": "O=S(=O)(c1ccc(-c2csc(Nc3ccc(F)cc3)n2)cc1)N1CCCC1", "inhibition": "inactive: 10.5%"}, {"molecule": "Cc1ccc(-c2nn(-c3ccccc3)cc2C2SCC(=O)N2Cc2ccccc2)o1", "note": "(configuration not stated)", "inhibition": "inconclusive: 71.4%"}, {"molecule": "CCCOc1ccc(C(=O)C(CN2CCCC2)c2ccccc2)cc1", "note": "(configuration not stated)", "inhibition": "inconclusive: 61.1%"}, {"molecule": "CC1=C(C#N)C(/C=N/OCc2ccc(Cl)cc2)CC(=O)N1", "note": "(configuration not stated)", "inhibition": "active: 83.3%"}, {"molecule": "Cc1cc(C)nc(N2CCCC(C(=O)NCCc3ccccc3F)C2)n1", "note": "(configuration not stated)", "inhibition": "inactive: -13.3%"}, {"molecule": "CCC(NS(=O)(=O)c1c(C)[nH]c(=O)[nH]c1=O)C12CC3CC(CC(C3)C1)C2", "note": "(configuration not stated)", "inhibition": "inactive: 0%"}, {"molecule": "CC(C)CNC(=O)CSc1ccc(Cl)cc1", "inhibition": "inactive: -8.33%"}, {"molecule": "c1ccc2[nH]c(-c3ccnc4ccccc34)nc2c1", "inhibition": "active: 85.7%"}, {"molecule": "CC1=C(C(=O)Nc2ccccc2)C(c2ccncc2)C(C#N)=C(SCC(=O)NC(C)C)N1", "note": "(configuration not stated)", "inhibition": "inconclusive: 75%"}, {"molecule": "CCOC(=O)/C(=C/c1ccc(N2CCC(c3ccccc3)=N2)cc1)C(C)=O", "inhibition": "inconclusive: 64.3%"}, {"molecule": "O=C(NNC(=O)c1cccc2ccccc12)c1ccc(-c2ccccc2)cc1", "inhibition": "inconclusive: 75%"}, {"molecule": "O=[N+]([O-])c1ccccc1/C=C\\C=N\\N1CCN(c2ccccc2)CC1", "inhibition": "inconclusive: 72.7%"}, {"molecule": "O=S(=O)(c1ccc(Nc2ccc3c(c2)OCO3)nc1)N1CCOCC1", "inhibition": "inconclusive: 71.4%"}, {"molecule": "CCc1c(O)nc(SCC(=O)Nc2ccccc2C)[nH]c1=O", "inhibition": "inconclusive: 83.3%"}, {"molecule": "O=C(NC1CCCCC1)C(c1ccc2ncccc2c1)N(Cc1ccccc1)C(=O)c1cccs1", "note": "(configuration not stated)", "inhibition": "inactive: 3.85%"}, {"molecule": "CC(C)(C)c1ccc(-c2nnc(SCC(=O)NC3CCS(=O)(=O)C3)n2N)cc1", "note": "(configuration not stated)", "inhibition": "inconclusive: 75%"}, {"molecule": "CCOC(=O)c1c(NC(=O)CSc2nnc(C)s2)sc2c1CCCCC2", "inhibition": "inactive: 17.9%"}, {"molecule": "COc1ccc(F)cc1S(=O)(=O)N1CCCN(S(=O)(=O)c2cc(F)ccc2OC)CC1", "inhibition": "inconclusive: 75%"}, {"molecule": "NC(=O)COC(=O)c1ccc(Cl)c(S(=O)(=O)N2CCCCCC2)c1", "inhibition": "inactive: -13.3%"}, {"molecule": "O=C(NCc1nc(-c2ccccc2)no1)c1ccc(Br)o1", "inhibition": "inconclusive: 80%"}, {"molecule": "CCOC(=O)Cn1c(=O)c2c(nc(N3CCOCC3)n2C)n(C)c1=O", "inhibition": "inconclusive: 78.6%"}, {"molecule": "CCc1cc(=O)oc2c(CN3CCCC3)c(O)c(Cl)cc12", "inhibition": "inconclusive: 81.8%"}, {"molecule": "COc1cccc(Cn2c(=S)[nH]c3ccc(N4CCOCC4)cc3c2=O)c1", "inhibition": "inactive: -59.4%"}, {"molecule": "Cc1c(C(=O)c2ccc(Cl)c([N+](=O)[O-])c2)c2ccccn2c1CCC#N", "inhibition": "inconclusive: 63.6%"}, {"molecule": "CCCN(CCC)C(=O)CC(c1ccccc1)c1ccc(C)cc1O", "note": "(configuration not stated)", "inhibition": "inactive: -31.2%"}, {"molecule": "CC(C)c1cc(C(=O)Nc2ccc3c(c2)OCO3)no1", "inhibition": "active: 80%"}, {"molecule": "Cc1cccc(NC(=S)NCCC(C)C)c1", "inhibition": "inactive: 23.5%"}, {"molecule": "CCc1ccc2[nH]c3nc(C)cc(C)c3c(=O)c2c1", "inhibition": "active: 81.5%"}, {"molecule": "Cc1ccc(-c2cn3cccc(C)c3n2)cc1", "inhibition": "active: 72.7%"}, {"molecule": "CCOc1ccccc1NC(=O)COn1nnc2ccccc21", "inhibition": "inconclusive: 76.9%"}, {"molecule": "CCCNc1ncccc1C(N)=O", "inhibition": "active: 60.6%"}, {"molecule": "CCOC(=O)c1cnn(C(=O)c2ccccc2)c1N", "inhibition": "inconclusive: 81.8%"}, {"molecule": "CC1Cc2nc(SCC(=O)OCc3ccccc3)n(C)c(=O)c2S1", "note": "(configuration not stated)", "inhibition": "inconclusive: 71.4%"}, {"molecule": "COc1nc(NCc2ccco2)nc(NC2CCCCC2)n1", "inhibition": "inconclusive: 75%"}, {"molecule": "CCOC(=O)N1CCN(c2ccc(Cl)cc2)CC1", "inhibition": "inconclusive: 66.7%"}, {"molecule": "Cc1ccc(C2c3c(oc4ccccc4c3=O)C(=O)N2c2nnc(C)s2)o1", "note": "(configuration not stated)", "inhibition": "inconclusive: 80%"}, {"molecule": "CCOC(=O)C1CCCN(C(=O)CCc2ccccc2)C1", "note": "(configuration not stated)", "inhibition": "inconclusive: 77.8%"}, {"molecule": "CC1(CCc2ccccc2)NC(=S)N(c2ccc(Cl)cc2)N1", "note": "(configuration not stated)", "inhibition": "inconclusive: 75%"}, {"molecule": "C/C(CCc1oc2ccc(Cl)cc2c1-c1ccc(C)o1)=N\\O", "inhibition": "inconclusive: 82.8%"}, {"molecule": "CN1CCN(C(=S)NC(=O)c2ccc(C(C)(C)C)cc2)CC1", "inhibition": "active: 66.7%"}]}]}
